In the supplement of paper PMC3334620:
In all, about 33,000 sequences were measured (“E-score (-0.5 to 0.5)”: median about -0.016, highest 2% from about 0.3 on). This is one part of the list.

Each sequence was assayed against T1, Yer184c (UniProt P39961) (assay: PBM E-score (8-mer binding enrichment) (E-score (-0.5 to 0.5)); higher = stronger / more preferred TF binding). Conditions: protein concentration: 100 nM; construct: GST-full length.
T1 sequence: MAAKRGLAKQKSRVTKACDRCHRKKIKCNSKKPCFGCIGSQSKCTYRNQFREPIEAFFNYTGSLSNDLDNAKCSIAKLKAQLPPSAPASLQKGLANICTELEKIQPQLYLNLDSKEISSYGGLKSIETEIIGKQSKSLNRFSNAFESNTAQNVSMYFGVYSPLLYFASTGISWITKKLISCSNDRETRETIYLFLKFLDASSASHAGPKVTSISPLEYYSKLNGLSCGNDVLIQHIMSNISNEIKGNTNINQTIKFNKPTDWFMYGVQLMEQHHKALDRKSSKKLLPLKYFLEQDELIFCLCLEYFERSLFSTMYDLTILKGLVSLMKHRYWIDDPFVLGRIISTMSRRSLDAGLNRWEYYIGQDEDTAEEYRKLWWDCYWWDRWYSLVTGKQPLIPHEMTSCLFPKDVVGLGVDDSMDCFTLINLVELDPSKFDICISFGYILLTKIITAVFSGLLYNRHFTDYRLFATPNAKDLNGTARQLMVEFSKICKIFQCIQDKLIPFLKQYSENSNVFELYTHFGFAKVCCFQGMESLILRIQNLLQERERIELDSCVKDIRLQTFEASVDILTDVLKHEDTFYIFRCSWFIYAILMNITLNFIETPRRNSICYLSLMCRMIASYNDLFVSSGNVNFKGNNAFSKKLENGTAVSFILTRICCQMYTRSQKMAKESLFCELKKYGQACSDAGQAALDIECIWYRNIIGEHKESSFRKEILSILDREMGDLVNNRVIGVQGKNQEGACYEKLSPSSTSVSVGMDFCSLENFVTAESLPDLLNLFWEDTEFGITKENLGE
Method in brief: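 The E-score, a modified Wilcoxon-Mann-Whitney statistic, was computed by the Universal PBM Analysis Suite for every ungapped eight-base word pooled with its reverse complement. Scans behind it were normalised with masliner after bound GST-tagged yeast transcription factors were detected with fluorescent anti-GST. The proteins, at about 100-200 nM, had been applied to universal all-10-mer Agilent arrays made double-stranded by primer extension.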

Sequence	PBM E-score
CTACGTGC	-0.236
ATTTTATG	0.217
CCAGTACG	0.0123
AGACATAA	-0.12
GCAGAAGA	0.0161
GTCTTTAA	0.0778
CCGTATAG	-0.021
ACATAGCA	-0.0537
ACTGCTCG	0.072
CTATTTAA	0.0903
TAGGAATA	0.0114
ATCGCGGG	-0.153
AGTCTGAG	-0.14
AGTTAAGG	-0.00816
AGGATAAA	0.0326
AATTCGCG	0.111
ACCAACGC	-0.125
AGGAAACA	0.165
CTGATGGC	-0.052
ATTGTTAG	0.0956
GTATTCTA	0.143
AATTTGTA	0.126
TAGCTCGA	0.00856
CCTTCTGC	-0.276
GACGACCA	-0.0396

Sequence	PBM E-score
AATCAGCA	0.143
ACAACATA	0.0797
CCATCACG	-0.043
ACACGACC	-0.00384
GTAGTGCA	-0.0021
AGACTTGG	-0.231
CTGCTCAC	-0.188
GAACTGTA	0.205
CTGTCAAC	-0.0849
GGCATCAA	-0.0951
CAAATAGG	-0.157
ACCTGCGA	-0.18
GCCGGTAA	0.346
CCGGCCTC	0.132
CATCTCGA	-0.202
ATAGTTCC	0.17
AACTAACT	0.0519
GCAGAACC	-0.19
CAAATTCG	0.102
TCAAAAGA	0.102
CAAAACCA	0.105
GAATCTTA	0.179
ATAAGTGC	-0.193
GATTCACA	-0.0882
AAAACCTG	-0.236

Quoted at random: 4 entries already listed
Sequence	PBM E-score
AGTCTGAG	-0.14
AAAACCTG	-0.236
ACTGCTCG	0.072
CATCTCGA	-0.202

Continued.

Sequence	PBM E-score
GTCTCAAA	-0.0364
GTGGCTGA	-0.0655
GTAGGGAA	-0.15
GTCTTACA	-0.156
ACAGCTTC	-0.0965
CGGGATGA	0.158
CAGTTTAG	-0.134
CAAACCTC	-0.259
CCCTCGTC	-0.193
CGTCCTGA	-0.197
CTCAAAAC	0.126
CTCTAAGA	0.106
GACTCAAA	-0.00661
AACGCTCA	-0.229
CCTGCCCC	-0.308
CCACTTAG	-0.135
CTATTATC	0.208
CAAACACC	0.0299
ATTCCGGC	0.393
CAATCTGC	-0.14
GATGAGTA	0.0629
CAGCGTCC	-0.0361
AATTATGC	0.129
GCCTCAGC	-0.0649
CATCTATA	0.0535

Sequence	PBM E-score
CCGCCCGG	0.299
GAGCAGTA	0.0566
AATGATCA	0.138
GCATTCGC	-0.135
CTACTTTA	0.0993
CTCGTGTC	-0.0515
TGAGTCAA	-0.131
AGCCAGCA	-0.263
AACGGTAC	0.187
ATAGCTAA	-0.156
ATGGCTAA	-0.103
AAACGCGG	0.181
AAGATTCT	0.113
GGATGTAC	-0.0797
GTTCACGA	-0.0289
CTCTACAG	-0.0337
CAGTTCTA	0.0121
AGCGACCA	0.0141
ATTAAGCC	0.277
CTCTGAAA	-0.0131
ATCTCCCG	0.00149
CGTTAGTC	0.0876
ACTAGGAA	-0.177
CCGCCGAC	0.109
ATCGAATC	0.0788

Sequence	PBM E-score
GCAAATGC	-0.0849
AATTAGGT	0.215
CGGACGTA	0.0548
ACATGTCC	0.0547
CAGTACAA	-0.0268
AAAAGCTT	0.107
GTACGGGA	-0.0559
AATCTCAC	-0.0253
GGCAGTAC	0.00589
CCATTGGG	-0.339
ATTTCAAG	0.101
AAGAGAGA	-0.156
GCCGGTAC	0.229
GTATACAA	0.125
GCGCATCC	-0.126
AATTCCAG	0.104
AATTTAAG	0.148
CATCCTCA	-0.063
CAGTGATA	0.0747
GAATACAA	0.18
GCGAAAGA	-0.0514
AGCGAAAT	0.12
GACAAAAA	0.333
CGTTGCGC	0.00917
ATTGGCTC	-0.0143

Sequence	PBM E-score
CGAAGGTC	-0.0244
ATCGGGGG	-0.2
ACGCCCTC	-0.12
ATACTTGG	-0.081
GGGGAGTA	-0.154
ATCTATGG	-0.151
AATGGGTG	-0.178
AAAGGCCG	0.108
GTGTCAAA	0.124
ACGAGACA	-0.0635
ACTGTTCT	-0.0108
ATGAATTA	0.145
CCTACGTC	-0.185
CATTAACC	0.18
ATCAGTCG	0.00418
ATTCACTC	0.0953
AAAACCAA	0.106
CATTCCCG	0.232
AGTAGGTC	-0.225
AGGTCCCA	-0.315
CCAGGTGC	-0.0471
AGTAGGAA	-0.182
CGGGGGAA	-0.0247
CCGGTCCA	0.0407
AGCTTAGG	-0.0812

Sequence	PBM E-score
ACCTAGAC	-0.0786
CAGGTCCG	0.0843
CTAGTTCC	0.216
CTCCAAAC	-0.0322
CACGTTTA	0.073
CTCACCTA	-0.0467
GGTGTGCA	-0.179
TACTCCTA	-0.142
GTGAACCA	0.0475
ACCTCGAT	-0.0464
AAGACAGG	-0.0549
GAGAGTCC	-0.292
CTTTATGA	-0.0202
CCGCGAAG	-0.0265
AATTGTAG	0.199
AAAAGCGG	-0.054
CGACGCCA	-0.214
AGTGTCCA	0.147
AGAACTGC	-0.0235
GACAGTTA	-0.0423
AGATCACG	0.0167
TCCGCGAA	0.234
AAATAAAG	0.045
TCACTAAA	0.0522
AGCACAGG	-0.131

Sequence	PBM E-score
CGACTAAA	-0.0185
ATCACGAA	-0.00673
AATTGGAC	0.105
CCATGCGC	-0.166
GGCTACGA	0.0596
ACGCAGTC	-0.253
AGGACCCA	-0.317
CATCATCC	-0.154
AATGTACA	0.107
CCTAGTAA	-0.0933
AACTATAG	-0.0416
GGTGCACC	-0.118
CAGAATCA	0.0879
CTCGACCA	-0.164
AAACGGAT	0.313
GCACTTAA	0.201
GCCGAATA	0.361
ACCTGACT	0.113
ATTGCTCG	0.0241
CCGTCTAC	0.0672
CTTTCAAA	0.248
CACGCCTC	-0.0955
CCGAGGCA	0.194
ATTGGTGG	-0.0975
ACGTACAT	0.0376

Sequence	PBM E-score
GTCATAGA	-0.0289
CCGTGAAG	-0.0231
GTTCTTAA	0.0672
CTTTCTGC	0.0505
CTTAATCC	0.0657
CATCGGTA	0.154
GGGGTGAA	-0.16
GCAGTCCC	-0.222
AAGTCACG	0.0266
ATAATCCC	-0.0945
CAAAATCC	0.118
ATAACCAA	0.0514
AGCCACAA	0.126
GAAGACAC	-0.00908
CCGATGGA	0.129
CGTTTAAA	0.073
AGTTTAGC	-0.101
CAGTTTAC	-0.0254
AATGCACG	0.024
GACCTCGC	-0.137
GAACTCGA	0.0578
AGAAAAGA	0.00442
CACCAATG	-0.145
AGAGTCGG	0.0672
TCTACGCA	0.0652

Sequence	PBM E-score
TCTAAGCA	-0.101
AATAGTGG	-0.0535
AAAAATCT	0.219
GCAACCGA	0.0827
GGATGTGA	0.0899
AACGAGGA	0.0248
GAACCCGC	-0.101
CGGTCGGC	0.161
AGAGTTAA	0.0684
GGAATTCC	0.125
AACCCGTG	-0.262
AACTTGCC	0.00508
CGAAGTTC	0.166
ATGCCTAC	-0.336
GTTTGTCA	0.0311
AGAATTAG	-0.00946
TGAAGCAA	0.0403
CCTGACTA	0.0172
ATAATCTC	0.128
GGTCTTTA	0.0223
ATGCGAAC	0.0436
ATCGTTAG	0.102
AATCGAGA	-0.0614
CCGCGCTC	0.0785
AACCTGCT	-0.0846

In a second layout: results already given.

| Sequence | PBM E-score |
| --- | --- |
| TCTAAGCA | -0.101 |
| GTTTGTCA | 0.0311 |

The list goes on.

Sequence	PBM E-score
CATTTACG	-0.0376
CGTAGTAG	0.102
ATACGGAG	0.123
ATTTCGAG	0.162
AATAGCAA	0.205
GAATCGCA	-0.163
CGTAGCGC	-0.233
GCTTCTTA	0.175
ATGCGTTA	-0.0382
AAAAGCAA	0.146
ATTGGTAG	-0.0488
ATCCCGAC	0.158
GGTAAGTA	0.0129
GCCGTAGA	0.322
ACCGATAC	0.127
ACAAGACA	0.00551
AGGGGCAG	-0.225
CATTTGCG	0.165
CTAGCCAA	0.0566
AGTGCGAA	-0.0968
AATACTCT	0.0821
ATCCCTCA	-0.137
AGAATCTC	-0.109
TACGTTAA	-0.0987
CGTACCCA	-0.182

Part of the list above, with bars between the fields.
Sequence | PBM E-score
CAAATTCG | 0.102
AATTATGC | 0.129
CCGCCCGG | 0.299
CTCTGAAA | -0.0131
CCAGGTGC | -0.0471
AGGGGCAG | -0.225

Further results:

Sequence	PBM E-score
GCTCATTA	0.0403
ATTACGGC	0.216
GTTGGAAA	0.0279
ATAATTTA	0.205
ACGTCCAG	-0.246
AGAAGACT	-0.277
GGGTTCCA	-0.208
ACTGCAGG	-0.24
GAGCCCTC	-0.222
GTGCTATA	0.0179
CTTCAAGC	-0.177
CAGAGTTA	-0.00643
CGACCGTA	-0.212
ACGATTGA	0.0125
CCACCCGA	0.0396
ATAGGAAC	-0.0252
CCGGCCCG	0.386
GGTATACA	0.0522
AAACAGAG	-0.0111
ATACCTTG	-0.00484
AGGCATAT	0.0107
CGACCTTA	-0.125
AAGTTCTA	-0.0763
AATAGGTA	-0.15
AAAACCAT	0.0993

Sequence	PBM E-score
AGATGTGC	-0.165
TTATTGAA	0.054
CGGTGGCA	-0.188
TAACGAGA	0.0041
GCACCACA	-0.0667
AGCACCAG	-0.196
CCGCCTCC	-0.209
CCCATGGA	-0.216
CATTGAAA	0.252
GCCGCTAA	0.128
AGCTGTAC	-0.0647
ATTCATGG	-0.0258
ACCTGCAA	-0.104
CAATTCTA	-0.041
CGCCAAGA	-0.232
ATACATGA	0.0451
ACCTAGGA	-0.0362
GCCGGCAA	0.424
AAAGGGAG	-0.313
CTATTGTA	0.186
CGCTTGTA	0.0325
GAGTCACC	-0.143
ACGCCAGG	-0.115
AACTTACT	-0.16
GGAATGCC	-0.0172

Sequence	PBM E-score
TCATCTCA	-0.00118
CAGCTAAC	-0.245
CCGATGTC	0.0654
ACACTGGG	-0.275
ATATCTTA	0.187
GGATGAAA	0.176
CATGGAAC	-0.137
CTTCTAGC	-0.166
CCACTGCC	-0.0541
CTCAAGAA	-0.149
ACAAAAAT	0.237
AACACCAT	0.0165
AGAAGTGA	-0.101
ATCTTAGC	-0.0214
ATAACGCG	-0.0632
AACGCAAA	0.0887
GCATTAAA	0.149
CGGCGTAC	0.164
AGATGGCC	-0.153
